PubChem BioAssay AID540256 (National Center for Advancing Translational Sciences (NCATS), 2011)
Out of some 300,000 compounds screened, about 3,700 (1.2%) were called active. Entries that show only a call come without a potency. The shares of active, inactive and inconclusive entries below differ from those in the screen. Calls come from the whole dose curve; tested in HEK293 cells. Where the call is inconclusive, the potency comes from a doubtful curve fit.
Potency is the fitted concentration of half-maximal effect.

Assay: qHTS for Inhibitors of binding or entry into cells for Lassa Virus; note: nearly all actives have a fitted effect of over 50% in size
Conditions: Lassa virus pseudotype entry inhibition, cell reporter; series mostly up to 37.9 µM
With `O=S(=O)(Nc1ccc(Cl)cc1)c1ccc(N2CCOCC2)c(NC(=S)NCCN2CCOCC2)c1` the Potency was inconclusive: 35.5 µM [inhibitor, single point].
For `O=C(COc1ccc(Br)cc1)N1CCN(c2ccccc2)CC1`, the Potency was “inactive”.
In the case of `O=C(NCc1ccco1)c1ccc(S(=O)(=O)N2CCCc3ccccc32)cc1`, the Potency is reported as active: 16.4 µM.
In the case of `O=C(NCc1cccs1)c1cccnc1Cl`, the Potency is reported as inconclusive: 20 µM [activator, single point].
For `Cc1ccc(S(=O)(=O)N2CCCN(S(=O)(=O)c3ccc4c(c3)OCCO4)CC2)cc1`, the Potency was inconclusive: 29.1 µM [inhibitor, single point].
For `COc1ccc(-c2n(CC(=O)OC3CC(C)CCC3C(C)C)c3ccccc3[n+]2C)cc1` (stereo not drawn), the Potency was inconclusive: 2.82 µM [inhibitor, full curve, poor fit].
In the case of `COc1cccc(NC(=S)N2CCC(C(=O)c3ccc(F)cc3)CC2)c1`, the Potency is reported as inconclusive: 35.5 µM [inhibitor, single point].
With `COc1ccccc1N1CCN(C(=O)c2ccc3c(c2)N(Cc2cc(C)ccc2C)C(=O)c2ccccc2S3(=O)=O)CC1` the Potency was inconclusive: 7.94 µM [inhibitor, partial curve, poor fit].
In the case of `CC1=NOC(=O)/C1=C\c1ccc(-c2ccc(Cl)c(C(=O)O)c2)o1`, the Potency is reported as “inactive”.
For `CCCn1c(C(=O)OC)cc2c1ccn2-c1ccc(F)cc1`, the Potency was “inactive”.
For `CCN(CC)c1ccc(NC(=O)C2CCN(S(=O)(=O)c3ccc4c(c3)oc(=O)n4C)CC2)c(C)c1`, the Potency was “inactive”.
For `O=C(c1ccccc1)c1ccc(OCCCN2CCCC2)cc1`, the Potency was “inactive”.
In the case of `Cc1ccc(C(=O)N2CCN(c3ncnc4c(C)csc34)CC2)cc1`, the Potency is reported as “inactive”.
For `CC(C)C(=O)Nc1cccc(NC(=S)NC(=O)c2ccc3c(c2)OCO3)c1`, the Potency was inconclusive: 0.447 µM [activator, full curve, poor fit].
With `CC(Nc1ccc(Cl)cc1)C(=O)NN` (stereo not drawn) the Potency was inconclusive: 1.41 µM [inhibitor, partial curve, poor fit].
In the case of `O=C(Nc1nc(-c2ccccc2)ns1)c1ccc(Cl)cc1`, the Potency is reported as “inactive”.
In the case of `O=[N+]([O-])c1ccccc1N=Nc1c(O)[nH]c2ccc(F)cc12`, the Potency is reported as inconclusive: 0.447 µM [activator, partial curve, poor fit].
With `CCOC(=O)c1c(NC(=O)c2ccc(S(=O)(=O)N(CC(C)C)CC(C)C)cc2)sc2c1CCN(CC)C2` the Potency was inconclusive: 25.1 µM [activator, single point].
In the case of `C#CCNC(=O)C1CCN(c2cc(C)nc(-c3ccccc3)n2)CC1`, the Potency is reported as “inactive”.
For `CCOC(=O)Cn1nnnc1C(C(C)C)N(Cc1cccs1)Cc1cc2cc(C)ccc2[nH]c1=O` (stereo not drawn), the Potency was inconclusive: 29.1 µM [inhibitor, single point].
With `O=C(Cn1cnc2ccccc2c1=O)c1c[nH]c2ccccc12` the Potency was “inactive”.
For `CC(C)(C)c1ccc(C(=O)c2c[nH]c(C(=O)O)c2)cc1`, the Potency was inconclusive: 0.562 µM [activator, full curve, poor fit].
With `Cc1cc(NC(=O)c2ccc3nccnc3c2)ccc1Br` the Potency was “inactive”.
With `Nc1ccc(-c2ccc(N)cc2)cc1` the Potency was “inactive”.
In the case of `CCOC(=O)Cc1nc2ccccc2[nH]1`, the Potency is reported as “inactive”.
For `C/C(=N\NC(=O)c1ccco1)c1ccc(NC(=O)c2cccs2)cc1`, the Potency was “inactive”.
With `COc1ccc(Br)cc1/C=N/NC(=O)c1ccc(OC)c(OC)c1` the Potency was inconclusive: 17.8 µM [inhibitor, single point].
For `Cc1ccc(NC(=O)COc2cccnc2[N+](=O)[O-])cc1S(=O)(=O)N1CCCCC1`, the Potency was inconclusive: 29.1 µM [inhibitor, single point].
In the case of `Cc1nn(C)c(C(=O)Nc2cccc(CN3CCOCC3)c2)c1Br`, the Potency is reported as inconclusive: 29.1 µM [inhibitor, single point].
For `Cc1ccc(S(=O)(=O)c2nnn(CC(=O)Nc3ccccc3C)c2N)cc1`, the Potency was “inactive”.
In the case of `CCOC(=O)c1cc(C#N)c(Oc2ccc(F)cc2)nc1-c1ccccc1`, the Potency is reported as inconclusive: 11.2 µM [inhibitor, single point].
In the case of `Cc1ccnc(NS(=O)(=O)c2ccc(NC(=O)c3ccc([N+](=O)[O-])s3)cc2)n1`, the Potency is reported as inconclusive: 20.6 µM [inhibitor, partial curve, poor fit].
For `CCCCOC(=O)Nc1nnc(/C=C/c2ccc(OC)cc2)s1`, the Potency was “inactive”.
With `O=C(Nc1cccc(C(F)(F)F)c1)c1cc2nc(-c3ccco3)cc(C(F)(F)Cl)n2n1` the Potency was inconclusive: 35.5 µM [activator, single point].
With `CCSc1n[nH]c2nc3c(c(=O)n12)C1(CCCC1)Cc1ccccc1-3` the Potency was “inactive”.
For `COc1ccc(OC)c(NC(=O)COCc2cc(-c3ccco3)on2)c1`, the Potency was “inactive”.
With `Cc1cc(C)n2nc(SCC(=O)c3cc(C)n(CC4CCCO4)c3C)nc2n1` (stereo not drawn) the Potency was “inactive”.
For `Cc1onc(-c2ccccc2)c1CNC(=O)C1COc2ccccc2O1` (stereo not drawn), the Potency was “inactive”.
With `CCOC(=O)c1ccc(NS(=O)(=O)c2ccc3c(c2)CCN3C(=O)CC)cc1` the Potency was “inactive”.
In the case of `Cc1ccc(NC(=O)NCc2ccc3c(c2)OCO3)cc1C`, the Potency is reported as “inactive”.
In the case of `Cc1cccc(C)c1Nc1ncnc(N)c1[N+](=O)[O-]`, the Potency is reported as “inactive”.
In the case of `Cc1ccc(C(=O)NCC(c2ccco2)S(=O)(=O)c2ccccc2)cc1C` (stereo not drawn), the Potency is reported as “inactive”.
In the case of `COc1ccccc1NC(=O)N(Cc1ccccc1)C1=NCC(C)S1` (stereo not drawn), the Potency is reported as inconclusive: 18.3 µM [inhibitor, single point].
In the case of `CCOc1ccc(NC(=O)N2CCN(Cc3ccc4c(c3)OCO4)CC2)cc1`, the Potency is reported as “inactive”.
In the case of `FC(F)(F)c1ccccc1NC(=S)N1CCc2ccccc2C1`, the Potency is reported as inconclusive: 29.1 µM [inhibitor, single point].
In the case of `COc1ccc(/C=C/c2nc(-c3ccccc3O)n[nH]2)cc1`, the Potency is reported as inconclusive: 14.1 µM [inhibitor, partial curve, poor fit].
For `CC(C)(C)OC(=O)N1CCC(c2c(C(=O)N3CCN(c4ccccn4)CC3)cnn2-c2cccc(F)c2)CC1`, the Potency was inconclusive: 3.16 µM [inhibitor, partial curve, poor fit].
For `COC(=O)C1=CN(Cc2cccs2)C=C(C(=O)OC)C1c1cccc(OC)c1OC`, the Potency was inconclusive: 0.366 µM [inhibitor, full curve].
